The supplement of paper PMC12819154, “High-throughput peptide-centric local stability assay extends protein–ligand identification to membrane proteins, tissues and bacteria” (Nature Structural & Molecular Biology, 2025)
This is one part of the list. Most entries show no effect beyond the scatter of the controls.

Chains of the proteins cited; added tags and fusions are not shown. Lines headed by an entry give the natural chain unless they say otherwise; changes in a name come on top.
UniProt Q9BRL6: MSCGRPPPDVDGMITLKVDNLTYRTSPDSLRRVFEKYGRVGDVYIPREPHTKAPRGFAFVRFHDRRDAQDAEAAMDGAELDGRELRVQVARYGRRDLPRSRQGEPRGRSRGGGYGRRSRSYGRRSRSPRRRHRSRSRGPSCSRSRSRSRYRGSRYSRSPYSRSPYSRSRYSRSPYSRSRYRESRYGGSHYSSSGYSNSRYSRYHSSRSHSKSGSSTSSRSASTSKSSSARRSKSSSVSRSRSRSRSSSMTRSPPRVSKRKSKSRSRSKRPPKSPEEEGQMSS
UniProt Q9BRK4: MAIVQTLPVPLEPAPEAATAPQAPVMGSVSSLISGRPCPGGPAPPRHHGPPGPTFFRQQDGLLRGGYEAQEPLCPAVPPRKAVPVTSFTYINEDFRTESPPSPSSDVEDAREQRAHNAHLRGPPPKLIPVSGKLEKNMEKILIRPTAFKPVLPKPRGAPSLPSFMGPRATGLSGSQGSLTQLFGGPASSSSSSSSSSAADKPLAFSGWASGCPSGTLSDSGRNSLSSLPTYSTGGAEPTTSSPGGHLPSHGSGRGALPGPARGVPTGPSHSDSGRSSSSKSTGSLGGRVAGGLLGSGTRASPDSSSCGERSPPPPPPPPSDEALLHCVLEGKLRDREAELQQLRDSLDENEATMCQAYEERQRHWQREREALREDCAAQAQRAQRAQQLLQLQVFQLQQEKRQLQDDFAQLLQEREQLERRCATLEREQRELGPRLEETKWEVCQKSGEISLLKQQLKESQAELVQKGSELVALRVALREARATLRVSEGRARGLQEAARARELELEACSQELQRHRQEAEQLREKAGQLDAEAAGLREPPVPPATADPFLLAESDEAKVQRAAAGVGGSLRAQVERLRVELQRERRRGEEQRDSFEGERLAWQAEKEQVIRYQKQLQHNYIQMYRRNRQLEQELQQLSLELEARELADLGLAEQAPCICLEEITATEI
UniProt Q9BUE0: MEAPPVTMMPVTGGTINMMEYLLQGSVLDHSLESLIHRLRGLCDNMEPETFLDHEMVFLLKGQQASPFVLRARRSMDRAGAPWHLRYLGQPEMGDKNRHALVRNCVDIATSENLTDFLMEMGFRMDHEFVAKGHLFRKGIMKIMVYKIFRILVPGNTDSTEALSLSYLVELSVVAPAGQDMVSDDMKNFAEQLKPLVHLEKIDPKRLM
UniProt Q9BRA2: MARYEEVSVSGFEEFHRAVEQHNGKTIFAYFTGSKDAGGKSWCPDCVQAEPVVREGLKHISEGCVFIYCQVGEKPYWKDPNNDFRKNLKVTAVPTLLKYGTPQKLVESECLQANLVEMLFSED
UniProt Q9BUB5: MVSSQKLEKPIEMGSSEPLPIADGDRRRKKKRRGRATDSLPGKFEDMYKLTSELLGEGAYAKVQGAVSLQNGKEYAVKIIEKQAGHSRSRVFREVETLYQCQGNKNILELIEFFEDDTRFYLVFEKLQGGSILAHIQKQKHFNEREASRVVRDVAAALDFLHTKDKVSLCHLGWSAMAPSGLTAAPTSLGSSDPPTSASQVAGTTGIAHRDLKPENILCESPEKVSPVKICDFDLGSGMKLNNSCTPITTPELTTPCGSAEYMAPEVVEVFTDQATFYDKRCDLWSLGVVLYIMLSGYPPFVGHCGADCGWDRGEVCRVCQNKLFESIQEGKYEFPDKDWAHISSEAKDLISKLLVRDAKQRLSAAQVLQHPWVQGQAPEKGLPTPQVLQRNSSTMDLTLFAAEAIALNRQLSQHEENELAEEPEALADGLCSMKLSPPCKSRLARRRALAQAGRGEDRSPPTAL
UniProt Q9BTM9: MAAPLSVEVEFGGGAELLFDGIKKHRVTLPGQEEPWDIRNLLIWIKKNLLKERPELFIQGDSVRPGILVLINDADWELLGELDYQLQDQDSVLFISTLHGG
UniProt Q9BRT9, whole entry: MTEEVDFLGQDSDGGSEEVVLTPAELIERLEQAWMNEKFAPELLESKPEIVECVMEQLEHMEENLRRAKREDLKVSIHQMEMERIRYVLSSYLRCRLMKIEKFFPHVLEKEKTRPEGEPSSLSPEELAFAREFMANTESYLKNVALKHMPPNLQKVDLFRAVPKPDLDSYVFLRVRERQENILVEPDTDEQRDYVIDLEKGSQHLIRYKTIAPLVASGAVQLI
UniProt Q99614: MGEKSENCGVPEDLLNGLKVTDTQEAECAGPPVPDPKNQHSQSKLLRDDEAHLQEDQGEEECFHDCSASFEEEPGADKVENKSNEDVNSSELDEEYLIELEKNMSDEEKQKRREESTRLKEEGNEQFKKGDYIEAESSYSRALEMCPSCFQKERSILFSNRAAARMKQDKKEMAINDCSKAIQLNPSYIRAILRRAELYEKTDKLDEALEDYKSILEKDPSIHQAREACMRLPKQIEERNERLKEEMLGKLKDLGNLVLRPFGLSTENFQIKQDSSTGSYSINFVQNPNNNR
UniProt Q9BQ61: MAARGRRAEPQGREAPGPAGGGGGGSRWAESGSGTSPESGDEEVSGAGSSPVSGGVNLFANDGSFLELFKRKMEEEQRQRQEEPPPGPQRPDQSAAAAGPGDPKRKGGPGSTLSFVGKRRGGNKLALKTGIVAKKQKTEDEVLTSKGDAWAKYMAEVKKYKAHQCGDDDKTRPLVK
UniProt Q9BRP1: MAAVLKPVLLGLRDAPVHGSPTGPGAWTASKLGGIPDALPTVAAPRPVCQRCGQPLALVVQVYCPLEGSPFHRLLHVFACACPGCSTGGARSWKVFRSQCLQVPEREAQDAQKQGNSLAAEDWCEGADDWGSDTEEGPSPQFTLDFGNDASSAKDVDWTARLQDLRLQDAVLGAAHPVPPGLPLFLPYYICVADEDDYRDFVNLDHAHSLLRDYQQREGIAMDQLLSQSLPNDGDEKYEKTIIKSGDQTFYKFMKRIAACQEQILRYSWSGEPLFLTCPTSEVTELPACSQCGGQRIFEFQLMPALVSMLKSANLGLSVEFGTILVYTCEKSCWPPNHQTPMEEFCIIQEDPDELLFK
UniProt Q9BUF5, whole entry: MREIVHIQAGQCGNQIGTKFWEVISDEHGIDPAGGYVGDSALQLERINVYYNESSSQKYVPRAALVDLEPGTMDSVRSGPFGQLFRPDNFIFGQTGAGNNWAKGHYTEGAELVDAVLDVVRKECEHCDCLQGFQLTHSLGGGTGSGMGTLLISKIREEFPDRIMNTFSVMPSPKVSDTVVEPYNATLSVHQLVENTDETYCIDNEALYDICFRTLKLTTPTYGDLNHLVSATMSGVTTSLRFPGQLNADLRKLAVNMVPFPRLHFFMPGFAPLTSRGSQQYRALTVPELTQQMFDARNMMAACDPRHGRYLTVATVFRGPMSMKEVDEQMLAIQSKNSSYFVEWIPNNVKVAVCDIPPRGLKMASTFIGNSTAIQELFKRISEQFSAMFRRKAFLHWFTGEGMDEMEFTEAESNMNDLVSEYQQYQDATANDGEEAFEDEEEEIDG

The targets below were run with Cc1nc(Nc2ncc(C(=O)Nc3c(C)cccc3Cl)s2)cc(N2CCN(CCO)CC2)n1 [dasatinib] (assay: log2 fold change of tryptic peptide abundance, ligand vs vehicle (limited proteolysis) (log2 ratio); higher = more trypsin-susceptible (destabilized)). Settings: ligand concentration: 5 uM; sample: K562 cleared lysate.

Target | log2 fold change
SRSF8 (peptide sequence: VGDVYIPREPHTK, peptide start residue: 40) (UniProt Q9BRL6) | -0.144
LZTS2 (peptide sequence: GVPTGPSHSDSGR, peptide start residue: 263) (UniProt Q9BRK4) | -0.324
MED18 (peptide sequence: NFAEQLKPLVHLEK, peptide start residue: 188) (UniProt Q9BUE0) | 0.147
TXNDC17 (peptide sequence: NLKVTAVPTLLK, peptide start residue: 87) (UniProt Q9BRA2) | 0.318
UniProt Q9BUB5 (peptide sequence: VQGAVSLQNGK, peptide start residue: 63) | 0.18
URM1 (peptide sequence: HRVTLPGQEEPWDIR, peptide start residue: 25) (UniProt Q9BTM9) | -0.32
GINS4 (peptide sequence: FFPHVLEK, peptide start residue: 103) (UniProt Q9BRT9) | 0.515
TTC1 (peptide sequence: AIQLNPSYIR, peptide start residue: 181) (UniProt Q99614) | -0.295
UniProt Q9BQ61 (peptide sequence: GGPGSTLSFVGKR, peptide start residue: 107) | 0.131
PDCD2L (peptide sequence: DVDWTAR, peptide start residue: 155) (UniProt Q9BRP1) | 0.0875
TUBB6 (peptide sequence: YLTVATVFR, peptide start residue: 310) (UniProt Q9BUF5) | -2.99
